# Measurements from PubChem BioAssay AID504847 (National Center for Advancing Translational Sciences (NCATS), 2011).
# The chains behind the UniProt entries cited, without tags or fusion partners. Where a name states a change or a piece, a line headed by the entry shows the natural chain unless it says otherwise.
# UniProt P11473: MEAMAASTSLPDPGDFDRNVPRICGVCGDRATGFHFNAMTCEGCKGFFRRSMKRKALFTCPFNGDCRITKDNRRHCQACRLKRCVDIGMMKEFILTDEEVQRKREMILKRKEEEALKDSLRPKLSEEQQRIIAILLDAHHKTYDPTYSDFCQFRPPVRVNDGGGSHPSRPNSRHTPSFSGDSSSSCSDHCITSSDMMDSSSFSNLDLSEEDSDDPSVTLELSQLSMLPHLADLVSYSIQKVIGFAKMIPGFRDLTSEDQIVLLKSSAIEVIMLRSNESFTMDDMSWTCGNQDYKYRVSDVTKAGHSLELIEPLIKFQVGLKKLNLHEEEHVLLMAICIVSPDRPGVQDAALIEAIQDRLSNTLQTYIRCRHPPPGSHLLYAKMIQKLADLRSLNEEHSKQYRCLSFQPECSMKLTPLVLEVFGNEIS
# The campaign covered roughly 400,000 compounds. About 3,700 (0.93%) were called active. The shares of active, inactive and inconclusive entries below differ from those in the screen. Calls come from the whole dose curve; as a rule, active = well fitted inhibition curve with a large enough effect; inconclusive = small, poorly fitted or top-dose-only effect, or another doubt; inactive = no such curve, though single readings can be large or run the other way. Potencies beside an inconclusive call are fits to weak or partial responses and may not hold up.
# Target: Vitamin D3 receptor (Homo sapiens) (UniProt P11473)
# Test: Inhibitors of the vitamin D receptor (VDR): qHTS
# Details: VDR-SRC2-3 peptide fluorescence polarization, 2 h; max response, negative = inhibition: hits give low values
# How it was run: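 Reagent solutions, kept cold and dark, are dispensed first; compounds are then pinned in at 23 nl, plates briefly spun, and incubated 2 h at ambient temperature. Inhibition of VDR–SRC2-3 peptide binding is read by fluorescence polarization.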
# % is set by controls: 0 for no effect and ±100 for the full control effect; potency is the fitted concentration of half-maximal effect.
Compound,Potency,"max response, negative = inhibition"
O=C(c1ccc2nc[nH]c2c1)N1CCN(S(=O)(=O)c2cccc(F)c2)CC1,"inconclusive: 70.8 µM [inhibitor, partial curve]",–
COc1ccc(CC(=S)NCCc2ccccc2)cc1,"inconclusive: 56.2 µM [inhibitor, partial curve, poor fit]",–
COc1ccc(C2=C(N3CCN(c4cc(Cl)ccc4C)CC3)c3ccccc3C2=O)cc1,–,inactive: 16.7%
CCOC(=O)COc1ccc(S(=O)(=O)N2CCN(c3ccc(OC)cc3)CC2)cc1,"inconclusive: 56.2 µM [inhibitor, partial curve, poor fit]",–
CCOC(=O)c1ccccc1NC(=O)CSc1ncc2c(n1)-c1ccccc1N(CC)S2(=O)=O,–,inactive: 7.31%
Cc1cccc([C@H]2[C@@H]3C=CC[C@@H](C)[C@@H]3C(=O)N2Cc2ccccc2)c1,"inconclusive: 89.1 µM [inhibitor, partial curve]",–
O=C1c2cccc3cc(Br)cc(c23)C(=O)N1Nc1ccccc1,"inconclusive: 89.1 µM [inhibitor, single point]",–
CCCOc1ccc(C(=O)NNC(=S)NC(=O)CC)cc1,"inconclusive: 89.1 µM [inhibitor, single point]",–
CSc1cccc(NC(=O)c2ccc3c(c2)c(C)c(C)n3Cc2ccc(F)cc2)c1,–,inactive: -0.874%
Cc1cccc(C(=O)NC2C(=O)NNC2c2ccc(Cl)cc2)c1 (stereo not drawn),"inconclusive: 89.1 µM [inhibitor, single point]",–
CN1CCN(S(=O)(=O)c2ccc(N3CCN(C(c4ccccc4)c4ccccc4)CC3)nc2)CC1,–,inactive: 4.62%
CN(C)CCN(Cc1ccc(Cl)cc1)c1ccccn1,"inconclusive: 50.1 µM [inhibitor, partial curve, poor fit]",–
COc1ccccc1-c1c(C)nn2c(C(F)(F)F)cc(-c3ccccc3)nc12,–,inactive: -7.18%
O=C(CCC1N=C2c3ccccc3N=C(SCc3cccc(Cl)c3)N2C1=O)NCc1cccs1 (stereo not drawn),–,inactive: 9.23%
CCCC(=O)N1CCN(c2ccc([N+](=O)[O-])cc2Cl)CC1,"inconclusive: 7.94 µM [inhibitor, partial curve, poor fit]",–
COCCNCc1ccccc1,"inconclusive: 63.1 µM [inhibitor, partial curve, poor fit]",–
O=S(=O)(Nc1ccc(Cl)cc1)c1ccc(N2CCOCC2)c(NC(=S)NC2CC2)c1,active: 79.4 µM,–
O=C(c1cc2ccccc2cc1O)N1CCCC(C(F)(F)F)C1 (stereo not drawn),–,inactive: 20.6%
O=C(Cn1cc(COc2ccccc2C(F)(F)F)nn1)c1ccc(O)cc1,"inconclusive: 79.4 µM [inhibitor, partial curve]",–
C=CCn1c(SCC(=O)c2ccc(Br)cc2)nnc1C(CC(C)C)NC(=O)c1cccs1 (stereo not drawn),"inconclusive: 63.1 µM [inhibitor, single point]",–
CN(C)c1ccc(/C=C(\C#N)c2nc3ccccc3c(=O)[nH]2)cc1,"inconclusive: 89.1 µM [inhibitor, single point]",–
O=[N+]([O-])c1ccccc1S(=O)(=O)N1CCN(Cc2cc3c(cc2O)OCO3)CC1,"inconclusive: 39.8 µM [inhibitor, single point]",–

Compound,Potency,"max response, negative = inhibition"
CN1CCN(c2ncc3nc(-c4ccc(Cl)cc4)c(=O)n(CCC#N)c3n2)CC1,"inconclusive: 70.8 µM [inhibitor, single point]",–
CCCC(=O)Oc1c(Sc2ccc(Cl)cc2)c(C)nn1-c1ccccc1,active: 50.1 µM,–
Cc1c(/C(O)=C2/C(=O)C(=O)N(CCN3CCOCC3)C2c2ccco2)cnn1-c1ccccc1 (stereo not drawn),"inconclusive: 89.1 µM [inhibitor, single point]",–
S=C(NCCCN1CCOCC1)NCCCN1CCOCC1,"inconclusive: 79.4 µM [inhibitor, partial curve]",–
CCc1ccccc1N1CC(c2nc3ccccc3n2CC(C)C)CC1=O (stereo not drawn),–,inactive: 4.56%
COc1ccc(OC)c(Nc2nnc(C)c(=O)[nH]2)c1,"inconclusive: 7.08 µM [inhibitor, partial curve, poor fit]",–
Cc1ccc(NC(=O)C2CCCN(S(=O)(=O)c3cnc[nH]3)C2)c(Br)c1 (stereo not drawn),"inconclusive: 56.2 µM [inhibitor, partial curve, poor fit]",–
NC(=S)N=Nc1c(O)cc(O)c2[nH]c(=O)ccc12,"inconclusive: 89.1 µM [inhibitor, single point]",–
CCC(=O)Nc1ccccc1-c1nc2ccccc2n(C(CC)C(=O)Nc2cccc(C(C)=O)c2)c1=O (stereo not drawn),–,inactive: 3.95%
c1ccc(Nc2cc(-c3ccoc3)ncn2)cc1,active: 11.2 µM,–
C[C@H](NC(=O)[C@@H]1Cc2ccccc2CN1)C(=O)NC1CCCC1,–,inactive: 14.4%
Cc1cccc2c1CC(C)(C)N/C2=C\C(N)=O,"inconclusive: 79.4 µM [inhibitor, single point]",–
COc1cccc(C(=O)NCC(=O)OCC(=O)Nc2ncc(Cl)cc2Cl)c1,–,inactive: -6.23%
Cc1cc(C)c2c(=O)n(CC(=O)Nc3ccc(Br)c(C)c3)sc2n1,"inconclusive: 31.6 µM [inhibitor, full curve, poor fit]",–
Cc1cc(C(C2C(=O)CC(C)(C)CC2=O)C2C(=O)CC(C)(C)CC2=O)cc(C)c1OC(F)F,active: 10 µM,–
c1ccc(CN2CCC(Nc3ncnc4sccc34)CC2)cc1,–,inactive: -5.38%
COc1ccc(-n2c(C)cc(C(=O)CN3C(=O)c4ccccc4C3=O)c2C)cc1,–,inactive: 16.8%
CC(C)S(=O)(=O)c1oc(-c2ccc(F)cc2)nc1S(=O)(=O)c1ccc(F)cc1,"inconclusive: 25.1 µM [inhibitor, partial curve, poor fit]",–
CNc1ccc(-c2nc3ccccc3s2)cc1,active: 11.2 µM,–
CNS(=O)(=O)c1ccc2nc(NC(=O)c3ccc(N4C(=O)CCC4=O)cc3)sc2c1,"inconclusive: 35.5 µM [inhibitor, partial curve, poor fit]",–
Cn1cnnc1SCC(=O)c1ccc(OC(F)F)cc1,"inconclusive: 89.1 µM [inhibitor, single point]",–

# One compound at a time (already shown):
# CCc1ccccc1N1CC(c2nc3ccccc3n2CC(C)C)CC1=O (stereo not drawn) in the list: max response, negative = inhibition: inactive: 4.56%
# COc1ccccc1-c1c(C)nn2c(C(F)(F)F)cc(-c3ccccc3)nc12 in the list: max response, negative = inhibition: inactive: -7.18%
# COCCNCc1ccccc1 in the list: Potency: inconclusive: 63.1 µM [inhibitor, partial curve, poor fit]
# CN(C)c1ccc(/C=C(\C#N)c2nc3ccccc3c(=O)[nH]2)cc1 in the list: Potency: inconclusive: 89.1 µM [inhibitor, single point]
